{"source": "PubChem BioAssay AID1224830 (NIAID, 2016)", "screen": "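Host factors that control LPS-induced TNF expression in human macrophages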 (primary screen)", "cells": "human THP-1 monocytic leukaemia cells, TNF dual-luciferase reporter clone, PMA-differentiated to macrophage-like cells", "reagents": "siRNA pool against human genes, 50 nM", "duration": "LPS for 4 h, given about 3 days after siRNA transfection", "conditions": "bacterial LPS (TLR4 ligand), 10 ng/ml", "detection": "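Ratio of firefly to renilla light, scaled to the plate median and expressed as a robust z-score per replicate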", "reading the numbers": "TNF reporter robust z-score: higher = stronger TNF reporter response to LPS", "hit rule": "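Each well counts as active if its z-score is over 2.8 or under -1.5; controls are left without a call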", "note": "Here is an unselected part of about 18,000 deposited reagents. Over the whole deposit, about 2,900 (16%) are marked active. 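Calls are made per well; low scores hint the gene aids the LPS response, high scores that it dampens it.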 Repeated entries: four replicate wells of each siRNA pool."}
{"gene": "NXT1 (nuclear transport factor 2 like export factor 1)", "TNF reporter robust z-score": -1.8, "activity call": "active"}
{"gene": "NXT1 (nuclear transport factor 2 like export factor 1)", "TNF reporter robust z-score": -1.23, "activity call": "inactive"}
{"gene": "NXT1 (nuclear transport factor 2 like export factor 1)", "TNF reporter robust z-score": -0.92, "activity call": "inactive"}
{"gene": "NXT1 (nuclear transport factor 2 like export factor 1)", "TNF reporter robust z-score": -0.69, "activity call": "inactive"}
{"gene": "MCUB", "TNF reporter robust z-score": 0.53, "activity call": "inactive"}
{"gene": "MCUB", "TNF reporter robust z-score": 1.09, "activity call": "inactive"}
{"gene": "MCUB", "TNF reporter robust z-score": -0.08, "activity call": "inactive"}
{"gene": "MCUB", "TNF reporter robust z-score": 0.39, "activity call": "inactive"}
{"gene": "SRGAP3 (SLIT-ROBO Rho GTPase activating protein 3)", "TNF reporter robust z-score": -0.75, "activity call": "inactive"}
{"gene": "SRGAP3 (SLIT-ROBO Rho GTPase activating protein 3)", "TNF reporter robust z-score": 1.22, "activity call": "inactive"}
{"gene": "SRGAP3 (SLIT-ROBO Rho GTPase activating protein 3)", "TNF reporter robust z-score": 1.7, "activity call": "inactive"}
{"gene": "SRGAP3 (SLIT-ROBO Rho GTPase activating protein 3)", "TNF reporter robust z-score": 0.83, "activity call": "inactive"}
{"gene": "KCNJ2 (potassium inwardly rectifying channel subfamily J member 2)", "TNF reporter robust z-score": -0.53, "activity call": "inactive"}
{"gene": "KCNJ2 (potassium inwardly rectifying channel subfamily J member 2)", "TNF reporter robust z-score": -0.86, "activity call": "inactive"}
{"gene": "KCNJ2 (potassium inwardly rectifying channel subfamily J member 2)", "TNF reporter robust z-score": -0.2, "activity call": "inactive"}
{"gene": "KCNJ2 (potassium inwardly rectifying channel subfamily J member 2)", "TNF reporter robust z-score": 0.3, "activity call": "inactive"}
{"gene": "UCHL3 (ubiquitin C-terminal hydrolase L3)", "TNF reporter robust z-score": 0.35, "activity call": "inactive"}
{"gene": "UCHL3 (ubiquitin C-terminal hydrolase L3)", "TNF reporter robust z-score": -1.31, "activity call": "inactive"}
{"gene": "UCHL3 (ubiquitin C-terminal hydrolase L3)", "TNF reporter robust z-score": -0.08, "activity call": "inactive"}
{"gene": "UCHL3 (ubiquitin C-terminal hydrolase L3)", "TNF reporter robust z-score": 0.4, "activity call": "inactive"}
{"gene": "RBAK (RB associated KRAB zinc finger)", "TNF reporter robust z-score": 0.06, "activity call": "inactive"}
{"gene": "RBAK (RB associated KRAB zinc finger)", "TNF reporter robust z-score": 0.62, "activity call": "inactive"}
{"gene": "RBAK (RB associated KRAB zinc finger)", "TNF reporter robust z-score": 0.34, "activity call": "inactive"}
{"gene": "RBAK (RB associated KRAB zinc finger)", "TNF reporter robust z-score": -0.47, "activity call": "inactive"}
{"gene": "ETS1 (ETS proto-oncogene 1, transcription factor)", "TNF reporter robust z-score": -0.21, "activity call": "inactive"}
{"gene": "ETS1 (ETS proto-oncogene 1, transcription factor)", "TNF reporter robust z-score": 0.71, "activity call": "inactive"}
{"gene": "ETS1 (ETS proto-oncogene 1, transcription factor)", "TNF reporter robust z-score": -0.03, "activity call": "inactive"}
{"gene": "ETS1 (ETS proto-oncogene 1, transcription factor)", "TNF reporter robust z-score": 2.07, "activity call": "inactive"}

Next part, starting with the last 2 of the part before.
{"gene": "ETS1 (ETS proto-oncogene 1, transcription factor)", "TNF reporter robust z-score": -0.03, "activity call": "inactive"}
{"gene": "ETS1 (ETS proto-oncogene 1, transcription factor)", "TNF reporter robust z-score": 2.07, "activity call": "inactive"}
{"gene": "MMGT1 (membrane magnesium transporter 1)", "TNF reporter robust z-score": 0.73, "activity call": "inactive"}
{"gene": "MMGT1 (membrane magnesium transporter 1)", "TNF reporter robust z-score": 1.14, "activity call": "inactive"}
{"gene": "MMGT1 (membrane magnesium transporter 1)", "TNF reporter robust z-score": 0.67, "activity call": "inactive"}
{"gene": "MMGT1 (membrane magnesium transporter 1)", "TNF reporter robust z-score": -1.25, "activity call": "inactive"}
{"gene": "OR10X1 (olfactory receptor family 10 subfamily X member 1)", "TNF reporter robust z-score": 0.98, "activity call": "inactive"}
{"gene": "OR10X1 (olfactory receptor family 10 subfamily X member 1)", "TNF reporter robust z-score": 0.97, "activity call": "inactive"}
{"gene": "OR10X1 (olfactory receptor family 10 subfamily X member 1)", "TNF reporter robust z-score": 0.31, "activity call": "inactive"}
{"gene": "OR10X1 (olfactory receptor family 10 subfamily X member 1)", "TNF reporter robust z-score": 1.11, "activity call": "inactive"}
{"gene": "GPR119 (G protein-coupled receptor 119)", "TNF reporter robust z-score": 0.9, "activity call": "inactive"}
{"gene": "GPR119 (G protein-coupled receptor 119)", "TNF reporter robust z-score": 0.95, "activity call": "inactive"}
{"gene": "GPR119 (G protein-coupled receptor 119)", "TNF reporter robust z-score": 0.62, "activity call": "inactive"}
{"gene": "RAB28 (RAB28, member RAS oncogene family)", "TNF reporter robust z-score": -1.25, "activity call": "inactive"}
{"gene": "RAB28 (RAB28, member RAS oncogene family)", "TNF reporter robust z-score": -1.44, "activity call": "inactive"}
{"gene": "RAB28 (RAB28, member RAS oncogene family)", "TNF reporter robust z-score": -1.39, "activity call": "inactive"}
{"gene": "RAB28 (RAB28, member RAS oncogene family)", "TNF reporter robust z-score": -1.2, "activity call": "inactive"}
{"gene": "RANBP17 (RAN binding protein 17)", "TNF reporter robust z-score": 1.69, "activity call": "inactive"}
{"gene": "RANBP17 (RAN binding protein 17)", "TNF reporter robust z-score": 1.06, "activity call": "inactive"}
{"gene": "RANBP17 (RAN binding protein 17)", "TNF reporter robust z-score": 1.94, "activity call": "inactive"}
{"gene": "RANBP17 (RAN binding protein 17)", "TNF reporter robust z-score": 1.47, "activity call": "inactive"}
